Measurements reported in PubChem BioAssay AID1224828 (NIAID, 2016)

Assay: 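Find genes required for NF-kappaB p65 moving into the nucleus after LPS in mouse macrophages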 (primary screen)
System: mouse RAW264.7 G9 macrophage reporter cells (GFP-p65, Tnf promoter-mCherry)
Reagents: siRNA pool against mouse genes, 100 nM
Duration: 2 days siRNA transfection, then 40 min LPS before fixation
Challenge: LPS (Salmonella minnesota R595) at 10 ng/ml
Measured: 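Imaged p65 nuclear translocation ratio, normalised to the plate median, converted to robust z-scores and averaged across two replicates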
Reading the numbers: p65 translocation robust z-score: higher = more nuclear NF-kappaB p65 after LPS than the plate median; nuclear/cytoplasmic p65 ratio: higher = more nuclear NF-kappaB p65
Hit rule: 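Active if robust z is above 3.3 (negative regulators) or below -1.56, the Tlr4 control median (positive regulators); activity score 50 or more; control wells not called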
Meaning of the calls: active = hit (p65 shift raised or lowered); inactive = no clear change
This is a random part of about 17,000 reagents. 762 of all reagents (4.5%) were called active. 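Active calls include both raised and lowered p65 entry, mostly lowered; wells with fewer than 50 cells lack a z-score.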 The raw values are shown without normalisation.

gene	p65 translocation robust z-score	nuclear/cytoplasmic p65 ratio, rep 1	nuclear/cytoplasmic p65 ratio, rep 2	low cell count flag	Outcome
Col1a1	-0.79	1.34	1.29	enough cells to score	inactive
Glipr1	-0.97	1.39	1.18	enough cells to score	inactive
Or8g2b		1.66	1.37	fewer than 50 cells per well; well left out of scoring	inactive
Faf1	0.35	1.52	1.4	enough cells to score	inactive
Opn1mw	-1.2	1.34	1.58	enough cells to score	inactive
Ethe1	-0.29	1.67	1.32	enough cells to score	inactive
Gpr160	-1.31	1.28	1.43	enough cells to score	inactive
Cacng5	0.38	1.75	1.74	enough cells to score	inactive
Gm4792		1.4	1.4	fewer than 50 cells per well; well left out of scoring	inactive
Gpr87	0.46	1.57	1.79	enough cells to score	inactive
Fcgr1	-0.28	1.44	1.32	enough cells to score	inactive

An excerpt from above, limited to “low cell count flag”:
Or8g2b: fewer than 50 cells per well; well left out of scoring
Faf1: enough cells to score
Opn1mw: enough cells to score

The listing continues:
gene	p65 translocation robust z-score	nuclear/cytoplasmic p65 ratio, rep 1	nuclear/cytoplasmic p65 ratio, rep 2	low cell count flag	Outcome
Usp14	0.61	1.53	1.65	enough cells to score	inactive
Serpinb10	1.94	1.59	1.54	enough cells to score	inactive
Itgb5	0.29	1.55	1.38	enough cells to score	inactive
Wnt3a	-0.19	1.47	1.59	enough cells to score	inactive
Prpsap1	2.41	2.14	1.64	enough cells to score	inactive
Ankrd10	0.29	1.59	1.79	enough cells to score	inactive
Ascc2	-0.1	1.46	1.33	enough cells to score	inactive
Lats2	0.78	1.39	1.47	enough cells to score	inactive
Elmo1	-0.36	1.44	1.3	enough cells to score	inactive
Cadm3		1.6	0	fewer than 50 cells per well; well left out of scoring	inactive
Pou3f1	-0.14	1.46	1.41	enough cells to score	inactive
Tmem185b	1.08	1.49	1.66	enough cells to score	inactive
Hoxd11	1.23	1.56	1.57	enough cells to score	inactive
